Measured data: PubChem BioAssay AID504744 (Drosophila RNAi Screening Center, 2011)
Screen: 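Find genes whose loss alters insulin-driven dAkt phosphorylation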 (primary screen). System: Drosophila Kc167 cells. Reagents: long dsRNA against Drosophila genes, 250 ng dsRNA per well of a 384-well plate. Duration: 3 days of knock-down, then overnight serum-free starvation before stimulation. Treatment: bovine insulin at 387 nM for 10 minutes after 12 h without serum. Measured: 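In-cell antibody fluorescence for phospho-dAkt in each well over DNA-dye signal, with log2 residuals expressed as z-scores adjusted for cell count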. Hit rule: 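Under insulin, a gene counts as a hit if the average z-score of two replicates lies above 2.5 or below -2.5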.
In all, the deposit lists about 23,000 reagents; below is a random part of those with a known target gene and a result. In the full data, 98 (0.43%) are marked active. 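Only hit calls are given; the phospho-dAkt signals, z-scores and hit direction were not deposited.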 A plus sign joins genes that one reagent is predicted to hit.

| gene | amplicon | Call |
| --- | --- | --- |
| CG1801 (GeneID 33104) | DRSC20556 | inactive |
| dmrt93B (GeneID 42494) | DRSC15865 | inactive |
| CG15876 (GeneID 38573) | DRSC08484 | inactive |
| CG3308 (GeneID 42527) | DRSC15474 | inactive |
| Cpr23B (GeneID 33480) | DRSC00555 | inactive |
| CG12795 (GeneID 33561) | DRSC00354 | inactive |
| CG8042 (GeneID 38886) | DRSC09676 | inactive |
| CG10252 (GeneID 42794) | DRSC14221 | inactive |
| CG17027 (GeneID 39742) | DRSC10238 | inactive |
| CG7806 (GeneID 34140) | DRSC03071 | inactive |
| CG3823 (GeneID 31573) | DRSC18325 | inactive |
| CG32119 (GeneID 317866) | DRSC09248 | inactive |
| CG32119 (GeneID 317866) | DRSC21462 | inactive |
| CG13010 (GeneID 32643) | DRSC19529 | inactive |
| TfIIEalpha (GeneID 39313) | DRSC11303 | inactive |
| BomBc1 (GeneID 37099) | DRSC06501 | inactive |
| CG10866 (GeneID 38461) | DRSC08171 | inactive |
| CG14673 (retired record) (GeneID 40688) | DRSC12259 | inactive |
| Gpat4 (GeneID 37852) | DRSC04345 | inactive |
| CG5958 (GeneID 34022) | DRSC02915 | inactive |
| S1P (GeneID 40399) | DRSC11810 | inactive |
| lama (GeneID 38610) | DRSC11361 | inactive |
| CG8635 (GeneID 35850) | DRSC07226 | inactive |
| Vha68-3 (GeneID 34695) | DRSC02809 | inactive |
| MED15 (GeneID 33223) | DRSC00267 | inactive |
| Paris (GeneID 33657) | DRSC00451 | inactive |
| Syx4 (GeneID 31269) | DRSC18586 | inactive |
| Doc2 (GeneID 39038) | DRSC22716 | inactive |
| CG16741 (GeneID 59232) | DRSC06622 | inactive |
| CG10102 (retired record) (GeneID 36596) | DRSC05963 | inactive |
| CG32719 (GeneID 318169) | DRSC17525 | inactive |
| alpha-Man-Ic (GeneID 318624) | DRSC21674 | inactive |
| CG14297 (GeneID 42260) | DRSC14776 | inactive |
| Ugt36D1 (GeneID 35138) | DRSC02600 | inactive |
| CG7668 (GeneID 40190) | DRSC10901 | inactive |
| CG1394 (GeneID 32059) | DRSC19539 | inactive |
| Nup358 (GeneID 43041) | DRSC14410 | inactive |
| lilli (GeneID 33496) | DRSC00708 | inactive |
| CG14811 (GeneID 31132) | DRSC17962 | inactive |
| CG13564 (GeneID 37855) | DRSC04201 | inactive |
| kin17 (GeneID 40242) | DRSC11890 | inactive |
| CG32148 (GeneID 251924) | DRSC09338 | inactive |
| ProtA (GeneID 34866) | DRSC03372 | inactive |
| CG17780 + CG17781 | DRSC15266 | inactive |
| CG14610 + asRNA:CR42738 | DRSC12554 | inactive |
| CG13838 (GeneID 42719) | DRSC14688 | inactive |
| Polr3A (GeneID 32524) | DRSC19766 | inactive |
| CG32267 (GeneID 317946) | DRSC21561 | inactive |
| CG30053 (GeneID 246419) | DRSC07260 | inactive |
| sno (GeneID 32273) | DRSC20378 | inactive |
| LeuRS-m (GeneID 38581) | DRSC08595 | inactive |
| Hat1 (GeneID 40716) | DRSC12298 | inactive |
| L (retired record) (GeneID 44831) | DRSC05966 | inactive |
| L (retired record) (GeneID 44831) | DRSC05967 | inactive |
| CG17385 (GeneID 36603) | DRSC06664 | inactive |
| CG5693 (GeneID 50463) | DRSC02878 | inactive |
| CG31686 (retired record) (GeneID 318885) | DRSC00102 | inactive |
| CG9632 (GeneID 41926) | DRSC16528 | inactive |
| TbCMF46 (GeneID 34318) | DRSC02221 | inactive |
| gnu (GeneID 39615) | DRSC10497 | inactive |
| CG11570 (GeneID 39357) | DRSC09844 | inactive |
| Burs (GeneID 42560) | DRSC14595 | inactive |
| CG7006 (GeneID 42963) | DRSC16169 | inactive |
| msn (GeneID 44030) | DRSC07990 | inactive |
| msn (GeneID 44030) | DRSC08498 | inactive |
| Cpr49Ae (GeneID 36351) | DRSC07201 | inactive |
| Loxl2 (GeneID 37485) | DRSC04469 | inactive |
| Gpdh3 (GeneID 42624) | DRSC13561 | inactive |
| Gpdh3 (GeneID 42624) | DRSC15325 | inactive |
| CG42272 (GeneID 318020) | DRSC08766 | inactive |
| CG42272 (GeneID 318020) | DRSC22502 | inactive |
| Cep135 (GeneID 39647) | DRSC09345 | inactive |
| Cep135 (GeneID 39647) | DRSC10244 | inactive |
| CG10725 (GeneID 39510) | DRSC09788 | inactive |
| CG42241 (retired record) (GeneID 7354372) | DRSC04007 | inactive |
| Vsx2 (GeneID 31469) | DRSC17397 | inactive |
| Vsx2 (GeneID 31469) | DRSC18087 | inactive |
| Vsx2 (GeneID 31469) | DRSC18088 | inactive |
| Vsx2 (GeneID 31469) | DRSC18089 | inactive |
| Sirt2 (GeneID 42414) | DRSC15714 | inactive |
| l(2)37Cb (GeneID 35192) | DRSC02095 | inactive |
| eIF4A (GeneID 33835) | DRSC03526 | active |
| Eglp1 (GeneID 37736) | DRSC04502 | inactive |
| CG7083 (GeneID 38943) | DRSC11136 | inactive |
| CG7785 (GeneID 42158) | DRSC16311 | inactive |
| CG7381 (GeneID 41589) | DRSC16238 | inactive |
| Obp99d (GeneID 43496) | DRSC15046 | inactive |
| Zasp52 (GeneID 36740) | DRSC06269 | inactive |
| Zasp52 (GeneID 36740) | DRSC07121 | inactive |
| CG14410 (GeneID 32409) | DRSC19596 | inactive |
| mthl6 (GeneID 38839) | DRSC10234 | inactive |
| Surf1 (GeneID 44498) | DRSC11295 | inactive |
| Surf1 (GeneID 44498) | DRSC11394 | inactive |
| shf (GeneID 31617) | DRSC18283 | inactive |
| ssx (GeneID 31086) | DRSC18492 | inactive |
| Pstk + Tim9b | DRSC19504 | inactive |
| Pstk + Tim9b | DRSC20292 | inactive |
| CG9536 (GeneID 33904) | DRSC03254 | inactive |
| CG8507 (GeneID 41205) | DRSC16435 | inactive |
| CG13314 (GeneID 39030) | DRSC09985 | inactive |
| CG6340 (GeneID 32482) | DRSC19987 | inactive |
| Atg9 (GeneID 36821) | DRSC06848 | inactive |
| REPTOR-BP (GeneID 34371) | DRSC02683 | inactive |
| Coa7 (GeneID 3355158) | DRSC20967 | inactive |
| Cyp12d1-d + Cyp12d1-p | DRSC21507 | inactive |
| CG11357 (GeneID 38561) | DRSC08183 | inactive |
| CG17572 (GeneID 35182) | DRSC02629 | inactive |
| CG12155 (GeneID 31682) | DRSC17826 | inactive |
| CG31627 (GeneID 318860) | DRSC22143 | inactive |
| CG14598 (GeneID 40893) | DRSC12541 | inactive |
| CG2574 (GeneID 32190) | DRSC19862 | inactive |
| cnir (GeneID 33520) | DRSC00499 | inactive |
| Ak6 (GeneID 36379) | DRSC07274 | inactive |
| HDAC4 (GeneID 32278) | DRSC19780 | inactive |
| Npc2b (GeneID 41710) | DRSC15464 | inactive |
| CG1542 (GeneID 43691) | DRSC15035 | inactive |
| Ist1 (GeneID 38750) | DRSC09697 | inactive |
| CG6481 (GeneID 32843) | DRSC19995 | inactive |
| CG1208 (GeneID 40727) | DRSC12190 | inactive |
| CG12995 (GeneID 32707) | DRSC19515 | inactive |
| nahoda (GeneID 37641) | DRSC03954 | inactive |
| nahoda (GeneID 37641) | DRSC04126 | inactive |
| tkv (GeneID 33753) | DRSC00860 | inactive |
| tkv (GeneID 33753) | DRSC03623 | inactive |
| tkv (GeneID 33753) | DRSC22606 | inactive |
| CG14958 (GeneID 38387) | DRSC08417 | inactive |
| Tg (GeneID 34093) | DRSC03047 | inactive |
| CG18735 (GeneID 59137) | DRSC04312 | inactive |
| Snmp1 (GeneID 42514) | DRSC16168 | inactive |
| dpr18 (GeneID 32572) | DRSC19606 | inactive |
| Taf10b (GeneID 33468) | DRSC00792 | inactive |
| capu (GeneID 33611) | DRSC00208 | inactive |
| capu (GeneID 33611) | DRSC00209 | inactive |
| capu (GeneID 33611) | DRSC00434 | inactive |
| capu (GeneID 33611) | DRSC00807 | inactive |
| Rcc1 (GeneID 38669) | DRSC09684 | inactive |
| Tsp5D (GeneID 31540) | DRSC18380 | inactive |
| Ctf4 (GeneID 36551) | DRSC06380 | inactive |
| Cht10 (GeneID 3355116) | DRSC03766 | inactive |
| Cht10 (GeneID 3355116) | DRSC03767 | inactive |
| Cht10 (GeneID 3355116) | DRSC03768 | inactive |
| CG32846 (GeneID 318244) | DRSC08012 | inactive |
| Naxe (GeneID 31944) | DRSC18251 | inactive |
| Neurl4 (GeneID 39558) | DRSC10638 | inactive |
| ken (GeneID 37785) | DRSC04696 | inactive |
| CG6290 (GeneID 32827) | DRSC19979 | inactive |
| lncRNA:CR32690 (GeneID 10178944) | DRSC22219 | inactive |
| Hsp67Bc (GeneID 39071) | DRSC11193 | inactive |
| CREG (GeneID 42092) | DRSC16595 | inactive |
| CG9839 (GeneID 41055) | DRSC16574 | inactive |
| CG17048 (GeneID 36479) | DRSC06649 | inactive |
| CG15278 (GeneID 34865) | DRSC02481 | inactive |
| TotM (GeneID 33764) | DRSC02355 | inactive |
| CG13408 (GeneID 42597) | DRSC13534 | inactive |
| CG13408 (GeneID 42597) | DRSC14584 | inactive |
| CG12316 (GeneID 39650) | DRSC09879 | inactive |
| Drep3 (GeneID 36292) | DRSC06312 | inactive |
| Drep3 (GeneID 36292) | DRSC07529 | inactive |
| Drep3 (GeneID 36292) | DRSC22344 | inactive |

21 neighbouring records from above, for reference:
| gene | amplicon | Call |
| --- | --- | --- |
| CG7806 (GeneID 34140) | DRSC03071 | inactive |
| CG3823 (GeneID 31573) | DRSC18325 | inactive |
| CG32119 (GeneID 317866) | DRSC09248 | inactive |
| CG32119 (GeneID 317866) | DRSC21462 | inactive |
| CG13010 (GeneID 32643) | DRSC19529 | inactive |
| TfIIEalpha (GeneID 39313) | DRSC11303 | inactive |
| BomBc1 (GeneID 37099) | DRSC06501 | inactive |
| CG10866 (GeneID 38461) | DRSC08171 | inactive |
| CG14673 (retired record) (GeneID 40688) | DRSC12259 | inactive |
| Gpat4 (GeneID 37852) | DRSC04345 | inactive |
| CG5958 (GeneID 34022) | DRSC02915 | inactive |
| S1P (GeneID 40399) | DRSC11810 | inactive |
| lama (GeneID 38610) | DRSC11361 | inactive |
| CG8635 (GeneID 35850) | DRSC07226 | inactive |
| Vha68-3 (GeneID 34695) | DRSC02809 | inactive |
| MED15 (GeneID 33223) | DRSC00267 | inactive |
| Paris (GeneID 33657) | DRSC00451 | inactive |
| Syx4 (GeneID 31269) | DRSC18586 | inactive |
| Doc2 (GeneID 39038) | DRSC22716 | inactive |
| CG16741 (GeneID 59232) | DRSC06622 | inactive |
| CG10102 (retired record) (GeneID 36596) | DRSC05963 | inactive |
